Assay results from PMC10547647.
No constants are given. Whether binding was seen depends on the method and setting. Binding seen in cells or lysates may run through a third protein. Binding can be weak; no strength is given.

The chains behind the UniProt entries cited, without tags or fusion partners. Where a name states a change or a piece, a line headed by the entry shows the natural chain unless it says otherwise.
UniProt Q13642: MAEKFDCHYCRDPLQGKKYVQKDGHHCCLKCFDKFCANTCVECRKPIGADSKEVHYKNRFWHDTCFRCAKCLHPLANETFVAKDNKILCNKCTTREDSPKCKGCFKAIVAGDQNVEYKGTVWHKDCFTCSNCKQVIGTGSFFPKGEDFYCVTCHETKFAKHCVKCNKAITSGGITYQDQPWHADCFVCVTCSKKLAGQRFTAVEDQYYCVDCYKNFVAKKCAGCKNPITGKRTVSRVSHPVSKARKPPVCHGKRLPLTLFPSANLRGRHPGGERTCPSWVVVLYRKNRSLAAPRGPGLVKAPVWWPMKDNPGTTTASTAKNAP

Assays:
[1] = molecular target: Flag-tagged four-and-a-half LIM domain protein 1 (FHL1) (human) (UniProt Q13642); assay: co-IP; BxPC-3 cells transfected with Flag-FHL1 vectors; anti-Flag IP, Western blot
[2] = molecular target: 14–3-3ξ, endogenous (human (endogenous in BxPC-3)); assay: co-IP; BxPC-3 cells transfected with control vectors or Flag-FHL1 vectors; IP by anti-14–3-3ξ or IgG, Western blot

| binding [1] | binding [2] | Binder |
| --- | --- | --- |
| binds | – | CDC25C, endogenous (protein, UniProt P30307 1-473) MSTELFSSTREEGSSGSGPSFRSNQRKMLNLLLERDTSFTVCPDVPRTPVGKFLGDSANLSILSGGTPKRCLDLSNLSSGEITATQLTTSADLDETGHLDSSGLQEVHLAGMNHDQHLMKCSPAQLLCSTPNGLDRGHRKRDAMCSSSANKENDNGNLVDSEMKYLGSPITTVPKLDKNPNLGEDQAEEISDELMEFSLKDQEAKVSRSGLYRSPSMPENLNRPRLKQVEKFKDNTIPDKVKKKYFSGQGKLRKGLCLKKTVSLCDITITQMLEEDSNQGHLIGDFSKVCALPTVSGKHQDLKYVNPETVAALLSGKFQGLIEKFYVIDCRYPYEYLGGHIQGALNLYSQEELFNFFLKKPIVPLDTQKRIIIVFHCEFSSERGPRMCRCLREEDRSLNQYPALYYPELYILKGGYRDFFPEYMELCEPQSYCPMHHQDHKTELLRCRSQSKVQEGERQLREQIALLVKDMSP |
| binds | binds | Cell division cycle 25A (CDC25A), endogenous (protein, UniProt P30304 1-524) MELGPEPPHRRRLLFACSPPPASQPVVKALFGASAAGGLSPVTNLTVTMDQLQGLGSDYEQPLEVKNNSNLQRMGSSESTDSGFCLDSPGPLDSKENLENPMRRIHSLPQKLLGCSPALKRSHSDSLDHDIFQLIDPDENKENEAFEFKKPVRPVSRGCLHSHGLQEGKDLFTQRQNSAPARMLSSNERDSSEPGNFIPLFTPQSPVTATLSDEDDGFVDLLDGENLKNEEETPSCMASLWTAPLVMRTTNLDNRCKLFDSPSLCSSSTRSVLKRPERSQEESPPGSTKRRKSMSGASPKESTNPEKAHETLHQSLSLASSPKGTIENILDNDPRDLIGDFSKGYLFHTVAGKHQDLKYISPEIMASVLNGKFANLIKEFVIIDCRYPYEYEGGHIKGAVNLHMEEEVEDFLLKKPIVPTDGKRVIVVFHCEFSSERGPRMCRYVRERDRLGNEYPKLHYPELYVLKGGYKEFFMKCQSYCEPPSYRPMHHEDFKEDLKKFRTKSRTWAGEKSKREMYSRLKKL |
